Results deposited as PubChem BioAssay AID1259405 (NCATS, 2018).
Test: 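Knock-downs that lift recombinant protein yield in hamster ovary cells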 (primary screen). Cells: Chinese hamster CHO-K1 ovary cells with stable secreted eGFP expression. Reagents: single siRNA against mouse genes, 0.8 pmol siRNA per well (2 µl of 400 nM stock). Time to read-out: 3 days. Measured: 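Percent of the per-plate non-targeting control median for intracellular GFP per well by laser scanning cytometry and for cell viability by ATP luminescence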. Direction: GFP, % of control: higher = more GFP per well, higher productivity; viability (ATP), % of control: higher = more viable cells (more ATP). Hit rule: 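Called active when intracellular GFP, relative to negative control, is at or above 120%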.
The whole screen tested about 50,000 reagents; shown is a random part of them. About 4,000 of them (8%) were called active. 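Mouse siRNA library applied to hamster cells; one well for each siRNA.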 A number with no mark means an inactive call. The numbers tell different reagents against one gene apart. No sequences are given here.

| Gene | reagent | GFP, % of control | viability (ATP), % of control |
| --- | --- | --- | --- |
| Clic6 | 1 | 64.2 | 100 |
| Clic6 | 2 | 65.7 | 69.8 |
| Clic6 | 3 | 42.4 | 36.7 |
| Top2a | 1 | 77.3 | 98.2 |
| Top2a | 2 | 71 | 67.3 |
| Top2a | 3 | 28.9 | 43.9 |
| Chac2 | 1 | 92.4 | 91.3 |
| Chac2 | 2 | 52.7 | 91.4 |
| Chac2 | 3 | 66.1 | 66.9 |
| Mrpl52 | 1 | 79.2 | 78.4 |
| Mrpl52 | 2 | 129 (active) | 99 |
| Mrpl52 | 3 | 112 | 71.1 |
| Smarcc2 | 1 | 28.1 | 75 |
| Smarcc2 | 2 | 72.9 | 64.4 |
| Smarcc2 | 3 | 45.5 | 53.4 |
| Tgm3 | 1 | 95.9 | 56.4 |
| Tgm3 | 2 | 75.6 | 155 |
| Tgm3 | 3 | 84.3 | 119 |
| Prr18 | 1 | 80.1 | 91.6 |
| Prr18 | 2 | 104 | 55.4 |
| Prr18 | 3 | 74.9 | 72.9 |
| Ttc7 | 1 | 47.6 | 41.6 |
| Ttc7 | 2 | 73.5 | 104 |
| Ttc7 | 3 | 41.5 | 56.3 |
| Itga8 | 1 | 38.8 | 43.7 |
| Itga8 | 2 | 60.9 | 57.3 |
| Itga8 | 3 | 111 | 100 |
| Mmp19 | 1 | 85.8 | 91.9 |
| Mmp19 | 2 | 142 (active) | 90.4 |
| Mmp19 | 3 | 119 | 84.2 |
| Cuzd1 | 1 | 92 | 82.6 |
| Cuzd1 | 2 | 73.4 | 98.8 |
| Cuzd1 | 3 | 128 (active) | 125 |
| Neurl1b | 1 | 58.3 | 76.4 |
| Neurl1b | 2 | 71.5 | 72 |
| Neurl1b | 3 | 168 (active) | 157 |
| Trim69 | 1 | 69.3 | 86.4 |
| Trim69 | 2 | 57.7 | 67.8 |
| Trim69 | 3 | 129 (active) | 58 |
| Cbx3 | 1 | 46.3 | 72.7 |
| Cbx3 | 2 | 53.1 | 87.5 |
| Cbx3 | 3 | 51.8 | 44.3 |
| Fas | 1 | 110 | 109 |
| Fas | 2 | 89.9 | 84.5 |
| Fas | 3 | 57 | 58.4 |
| Il2rg | 1 | 53.8 | 68.1 |
| Il2rg | 2 | 75.1 | 73 |
| Il2rg | 3 | 91 | 77.8 |
| Defa-rs10 | 1 | 59.3 | 83.4 |
| Defa-rs10 | 2 | 180 (active) | 114 |
| Defa-rs10 | 3 | 97 | 57.7 |
| Kctd2 | 1 | 51.7 | 58.4 |
| Kctd2 | 2 | 72.2 | 57.2 |
| Kctd2 | 3 | 40.7 | 36.8 |
| Col13a1 | 1 | 71.1 | 73.4 |
| Col13a1 | 2 | 112 | 78.2 |
| Col13a1 | 3 | 30.7 | 57.8 |
| Rbms2 | 1 | 55.1 | 65.4 |
| Rbms2 | 2 | 73.4 | 82 |
| Cip2a | 1 | 64.6 | 90.1 |
| Cip2a | 2 | 72.1 | 87.5 |
| Cip2a | 3 | 83.3 | 122 |
| Tagap | 1 | 87.8 | 94.4 |
| Tagap | 2 | 128 (active) | 81.5 |
| Tagap | 3 | 107 | 75.1 |
| Mob3a | 1 | 86.3 | 109 |
| Mob3a | 2 | 85.3 | 96.2 |
| Plpp3 | 1 | 84.3 | 59.8 |
| Plpp3 | 2 | 83.9 | 67.2 |
| Plpp3 | 3 | 93.1 | 75.7 |
| Sgpl1 | 1 | 64.2 | 57.6 |
| Sgpl1 | 2 | 62.3 | 71.4 |
| Sgpl1 | 3 | 93.1 | 67.1 |
| Krt71 | 1 | 57.9 | 80.2 |
| Krt71 | 2 | 89.2 | 78.8 |
| Krt71 | 3 | 175 (active) | 80.2 |
| Etv5 | 1 | 64 | 64.4 |
| Etv5 | 2 | 99.9 | 86.4 |
| Arrdc4 | 1 | 66 | 66.3 |
| Arrdc4 | 2 | 72.4 | 92 |
| Arrdc4 | 3 | 65 | 66.7 |
| Sla | 1 | 113 | 96.6 |
| Sla | 2 | 72.1 | 77.2 |
| Sla | 3 | 45.8 | 44.5 |

7 entries already listed, ordered by “viability (ATP), % of control”, lowest first.
| Gene | reagent | GFP, % of control | viability (ATP), % of control |
| --- | --- | --- | --- |
| Neurl1b | 2 | 71.5 | 72 |
| Neurl1b | 1 | 58.3 | 76.4 |
| Cuzd1 | 1 | 92 | 82.6 |
| Trim69 | 1 | 69.3 | 86.4 |
| Cuzd1 | 2 | 73.4 | 98.8 |
| Cuzd1 | 3 | 128 (active) | 125 |
| Neurl1b | 3 | 168 (active) | 157 |
